# Primary screen of a compound library

Measurements from “University of Dundee, Small-Polar-MMV Screening Library” (2021), ChEMBL document CHEMBL3988442.

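Viability assay of Plasmodium falciparum sporozoites; the read-out is not stated. The concentration is filed as 10 mM, unlikely as a test dose, so the dose is not known. Higher reads as lower viability (inferred: compounds with an IC50 in retests scored well above the rest). Strong results were mostly tested again. Size under these conditions: about 34,000 compounds, about 280 of them at 50% or above in at least one test.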

Values are the deposited “Percent Effect”, in %.
The record does not define 0% and 100%; most values in the screen are far below 50% and negative numbers occur (in some assays of this library far below -100).
Compounds were drawn at random from those tested, without regard to their results.
Two or more numbers in one place are separate tests of the same structure; such repeats can differ widely.

{"smiles": "COc1c(C2CCCN2Cc2nc(-c3ccco3)no2)c(C)nn1C", "stereo": "stereo not shown", "effect": "-3.986 and 7.391 and 1.809"}
{"smiles": "CC1CCCN(CCNC(=O)c2ccn(-c3ccc(F)cc3)n2)C1", "stereo": "stereo not shown", "effect": 2.407}
{"smiles": "CCOC(C)c1noc(CN2CCNCC2)n1", "stereo": "stereo not shown", "effect": -21.85}
{"smiles": "Cc1ccc(N2CCCN(C(=O)C3CCCO3)CC2)nn1", "stereo": "stereo not shown", "effect": 3.608}
{"smiles": "Cc1ccc(CCC(=O)N(C)CCN2CCOCC2)c(C)c1", "effect": -1.015}
{"smiles": "COc1cc(CNC(C)Cn2cccn2)cc(Cl)c1OC.Cl", "stereo": "stereo not shown", "effect": 3.058}
{"smiles": "O=S(=O)(CCCN1CCCCC1Cn1cncn1)c1ccccc1", "stereo": "stereo not shown", "effect": -0.4727}
{"smiles": "Cl.Cl.c1cnc(NCc2cncc3c2CCN(Cc2ccsc2)C3)nc1", "effect": 8.586}
{"smiles": "COc1ccc(CN2CC[C@@]3(C2)[C@H](O)CN(C)S3(=O)=O)cc1F", "effect": 6.986}
{"smiles": "COc1ccc(C(C)N(C)Cc2c(C(C)(C)C)[nH]c3ncccc23)cc1", "stereo": "stereo not shown", "effect": 7.8}
{"smiles": "COc1ccccc1CNC(Cc1cccs1)c1nc(C)c(C)s1.Cl", "stereo": "stereo not shown", "effect": -1.092}
{"smiles": "CNC(=O)CN1CCCC12CCN(C(=O)c1ccccc1F)CC2.O=C(O)C(F)(F)F", "effect": -2.189}
{"smiles": "O=C(COc1ccccc1)N1CCC[C@]2(C[C@H](OCC3CC3)CO2)C1", "effect": 0.5587}
{"smiles": "NC(=O)CN1CC2(CCC1=O)CCN(Cc1cc(F)ccc1Cl)CC2", "effect": 4.077}
{"smiles": "Cn1ccnc1-c1cn(CCCc2nnc(N)s2)nn1", "effect": 11.1}
{"smiles": "COC(=O)CC1CCN(C(=O)c2ccc(-n3nnnc3C)cc2)CC1", "effect": 0.2747}
{"smiles": "COCCCN1CCN(CCOC)C(C)C1", "stereo": "stereo not shown", "effect": 0.9923}
{"smiles": "[H][C@@]12CNC[C@]1([H])N(C(=O)c1ccccc1)CCO2", "effect": -9.807}
{"smiles": "COCCN1CCc2cc(C(=O)N(C)C)c(NC(C)C)nc2CC1.O=C(O)C(F)(F)F.O=C(O)C(F)(F)F", "effect": 1.845}
{"smiles": "CCc1nc(C2CCCN(C(=O)c3cccc4cn[nH]c34)C2)no1", "stereo": "stereo not shown", "effect": "-4.551 and -6.748 and 9.106"}
{"smiles": "CC(C)c1nnc(NC(=O)CSCc2cc(=O)n3ccccc3n2)s1", "effect": 7.968}
{"smiles": "COCC(=O)N1CCCC(c2nc(N)ncc2-c2cccc(F)c2)C1", "stereo": "stereo not shown", "effect": -5.051}
{"smiles": "[H][C@]12CN(C(=O)CC3CC3)C[C@@]1([H])C(=O)N(c1ccccc1)C2", "effect": 8.844}
{"smiles": "COC(=O)c1cccc(CN(C)C(C)c2ccccn2)c1", "stereo": "stereo not shown", "effect": 1.374}
{"smiles": "c1cc(CNc2ccc(-c3nc(C4CC4)no3)cn2)no1", "effect": -9.769}
{"smiles": "COc1cc(CNCc2c(C)nn(C)c2N(C)C)ccn1", "effect": -2.88}
{"smiles": "Cc1cnn(CCNCc2ccc(OCc3cccnc3)cc2)c1", "effect": 4.913}
{"smiles": "CC(CNCc1ccc(Cl)c(Cl)c1)Oc1ccccn1.Cl", "stereo": "stereo not shown", "effect": 15.57}
{"smiles": "CCN(CC)S(=O)(=O)c1ccc2c(c1)N(Cc1cccnc1)C(=O)CS2", "effect": 8.326}
{"smiles": "CCc1ocnc1C(=O)N1CCOC(c2nc(C(C)C)n[nH]2)C1", "stereo": "stereo not shown", "effect": -13.1}
{"smiles": "Cc1nn(C)c(C)c1NC(=O)CN1CCCC1c1c(C)nn(C)c1C", "stereo": "stereo not shown", "effect": 7.405}
{"smiles": "CC(CCS(C)(=O)=O)NC(=O)NCc1ccc2ccccc2c1", "stereo": "stereo not shown", "effect": 3.375}
{"smiles": "Cc1csc(C2(NCC(O)COC(C)C)CCCC2)n1", "stereo": "stereo not shown", "effect": 4.343}
{"smiles": "COc1ccc(CCC(=O)Nc2cccnc2N2CCCC2)cc1Br", "effect": -1.6}
{"smiles": "Cc1noc(C)c1CNC(=O)N(C)C1CCN(c2ccccc2)C1=O", "stereo": "stereo not shown", "effect": 7.574}
{"smiles": "Cc1nc(C)n(C2CCCN(C(=O)c3ccc(NC4CC4)nc3)C2)n1", "stereo": "stereo not shown", "effect": -5.263}
{"smiles": "CC(=O)N1CCC(c2nccnc2Oc2ccccc2)CC1", "effect": 2.725}
{"smiles": "Cn1cc(-c2cnc(N3CCOCC3)nc2)cc1C(=O)NC1CC1", "effect": 0.4296}
{"smiles": "CNC(=O)C1CCN(C(=O)NCCc2ccc(Cl)s2)CC1", "effect": 1.615}
{"smiles": "Cc1ccc2nc(CN(Cc3ccc(C#N)cc3)C(C)C)cc(=O)n2c1", "effect": -0.7769}

2 of the entries, repeated:

| SMILES | effect |
|---|---|
| `Cn1cc(-c2cnc(N3CCOCC3)nc2)cc1C(=O)NC1CC1` | 0.4296 |
| `Cn1ccnc1-c1cn(CCCc2nnc(N)s2)nn1` | 11.1 |